We go through two sequences from publication PMC3371017.

By UniProt entry, the sequences of proteins in these tests, tags left out. Where a name states a change or a piece, a line headed by the entry shows the natural chain unless it says otherwise.
UniProt P19838: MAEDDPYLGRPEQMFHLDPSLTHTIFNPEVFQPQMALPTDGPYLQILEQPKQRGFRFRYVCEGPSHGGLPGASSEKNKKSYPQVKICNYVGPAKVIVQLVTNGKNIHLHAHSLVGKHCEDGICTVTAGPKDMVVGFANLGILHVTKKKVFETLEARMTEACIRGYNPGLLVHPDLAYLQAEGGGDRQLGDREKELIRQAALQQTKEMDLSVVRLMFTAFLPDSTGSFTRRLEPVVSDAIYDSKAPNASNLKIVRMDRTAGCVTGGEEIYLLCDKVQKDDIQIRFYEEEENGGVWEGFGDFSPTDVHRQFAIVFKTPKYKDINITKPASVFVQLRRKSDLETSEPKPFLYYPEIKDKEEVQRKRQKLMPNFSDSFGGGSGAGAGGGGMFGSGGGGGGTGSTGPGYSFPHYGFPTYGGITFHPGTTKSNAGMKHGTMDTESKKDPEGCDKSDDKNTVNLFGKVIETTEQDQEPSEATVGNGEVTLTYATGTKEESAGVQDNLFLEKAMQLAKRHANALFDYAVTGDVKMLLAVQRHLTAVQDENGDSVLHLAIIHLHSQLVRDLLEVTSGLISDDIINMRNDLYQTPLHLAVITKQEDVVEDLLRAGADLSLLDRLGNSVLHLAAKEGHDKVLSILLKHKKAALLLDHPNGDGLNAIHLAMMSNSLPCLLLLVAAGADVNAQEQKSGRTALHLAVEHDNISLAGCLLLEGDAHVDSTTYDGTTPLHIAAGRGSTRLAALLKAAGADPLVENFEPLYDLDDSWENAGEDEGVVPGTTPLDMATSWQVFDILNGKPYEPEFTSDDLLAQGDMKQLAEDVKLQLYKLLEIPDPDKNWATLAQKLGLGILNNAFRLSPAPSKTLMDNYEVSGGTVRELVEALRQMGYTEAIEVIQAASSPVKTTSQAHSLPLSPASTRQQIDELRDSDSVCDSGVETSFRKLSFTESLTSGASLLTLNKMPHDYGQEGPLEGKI

Construct, isoform or probe ends are uncertain for at least one entry. Where cells or extracts were used, other partners may take part. For some of these results: At least one verdict rests on a figure or table, not on a statement of the authors.

Series [1] concerns the target p50/p50 homodimer, endogenous (Homo sapiens) (UniProt P19838). Description: EMSA, supershift. Conditions: p65 siRNA, residual binding; HEK-293 nuclear extracts, 32P probes; pH and temperature not given (as previously described, ref. 48); protein in an extract; label: 32P. In general terms: In EMSA bound probe runs differently from free probe, usually more slowly.
Series [2] concerns p65 (RelA), endogenous + p50 (NF-kB1), endogenous. Briefly: EMSA, supershift (p65 and p50 antibodies). The conditions noted are these: etoposide-treated; HEK-293 nuclear extracts, 32P probes; pH and temperature not given (as previously described, ref. 48); protein in an extract; label: 32P.
Series [3] deals with HA-p65 (RelA) wild type (Homo sapiens) (UniProt Q04206). Briefly: EMSA, supershift (p65 antibody). The conditions noted are these: etoposide-treated; HEK-293 nuclear extracts, 32P probes; pH and temperature not given (as previously described, ref. 48); protein in an extract; residues 1-551; protein details: HA; label: 32P.
Series [4] deals with HA-p65 S547A (Homo sapiens) (UniProt Q04206). Briefly: EMSA, supershift (p65 antibody). Conditions: etoposide-treated; HEK-293 nuclear extracts, 32P probes; pH and temperature not given (as previously described, ref. 48); protein in an extract; residues 1-551; protein details: HA; label: 32P.

In the case of “GGTTACAAGGGACTTTCCGCTG (double strand) [HIV-1 LTR kB probe]”, the binding result in series [1] and in series [2] was “binds” in each case.

For “GGTTATCGTGGAATTTCCTCTG (double strand) [IL8 promoter kB probe]”, the binding result in series [3] and in series [4] was “binds” each time.
